Experimental data published in US20230089867A1 (Novartis AG, priority 2018, published 2023).

Assay: general procedure: hybrid (solid and solution phase) peptide synthesis; PS-2-Chlorotrityl chloride resin; HATU (TBTU, HCTU or HATU named); HATU/HOAt/2,6-lutidine for cyclisation
Details: for step yield: late stage modification step; for cyclisation yield: cyclisation step

Substance: N-(4-((2S,5S,8S,13S,16R)-16-benzyl-1-(4-chloro-2-(4-(1-methyl-2-(pyrrolidin-1-ylmethyl)-1H-imidazol-5-yl)phenoxy)benzyl)-8-(4-chlorobenzyl)-5-(methoxymethyl)-2,7,14-trimethyl-3,6,10,15,18-pentaoxo-1,4,7,11,14-pentaazacyclooctadecan-13-yl)butyl)acetamide trifluoroacetate
- step yield (trifluoroacetate): 72.8% yield

Substance: 3-(4-(2-(((2S,5S,8S,13S,16R)-16-benzyl-8-(4-chlorobenzyl)-5-(methoxymethyl)-2,7,13,14-tetramethyl-3,6,10,15,18-pentaoxo-1,4,7,11,14-pentaazacyclooctadecan-1-yl)methyl)-5-chlorophenoxy)phenyl)-5,6-dihydro-8H-spiro[imidazo[1,2-a]pyrazine-7,1′-pyrrolidin]-7-ium chloride hydrochloride
- step yield (chloride hydrochloride): 21.3% yield

Substance: (4S,7S,10S,14R,16aS,20aS)-14-benzyl-11-(4-chloro-2-(4-(2-((dimethylamino)methyl)-1-methyl-1H-imidazol-5-yl)phenoxy)benzyl)-4-(4-chlorobenzyl)-7-(methoxymethyl)-5,16-dimethyl-10-(3-(2-oxopyrrolidin-1-yl)propyl)hexadecahydrobenzo[l][1,4,7,11,14]pentaazacyclooctadecine-2,6,9,12,15 (3H)-pentaone
- step yield: 13.5%

Substance: (2S,5S,8S,13S,16R)-2-amino-16-benzyl-8-(4-chlorobenzyl)-5-(methoxymethyl)-7,13,14-trimethyl-3,6,10,15-tetraoxo-4,7,11,14-tetraazaoctadecan-18-oic acid
- crude purity (method not given) (whole synthesis): 76%

Substance: (2S,5S,8S,13S,16R)-16-benzyl-1-(4-chloro-2-(4-(1-methyl-2-(pyrrolidin-1-ylmethyl)-1H-imidazol-5-yl)phenoxy)benzyl)-8-(4-chlorobenzyl)-13-(4-(dimethylamino)butyl)-5-(methoxymethyl)-2,7,14-trimethyl-1,4,7,11,14-pentaazacyclooctadecane-3,6,10,15,18-pentaone hydrochloride
- step yield (hydrochloride): 64.7% yield

Substance: (2S,5S,8S,13S,16R)-1-(4-chloro-2-(4-(2-((dimethylamino)methyl)-1-methyl-1H-imidazol-5-yl)phenoxy)benzyl)-8-(4-chlorobenzyl)-5-(ethoxymethyl)-2,7,13,14,16-pentamethyl-1,4,7,11,14-pentaaza cyclooctadecane-3,6,10,15,18-pentaone formate
- cyclisation yield (formate salt): 9%

Substance: (2S,5S,8S,13S,16R)-16-allyl-1-(4-chloro-2-(4-(2-((dimethylamino)methyl)-1-methyl-1H-imidazol-5-yl)phenoxy)benzyl)-8-(4-chlorobenzyl)-5-(methoxymethyl)-2,7,13,14-tetramethyl-1,4,7,11,14-pentaaza cyclooctadecane-3,6,10,15,18-pentaone
- cyclisation yield: 26%

Substance: (2S,5S,8S,13S,16R)-16-benzyl-8-(4-chlorobenzyl)-1-(4-ethyl-2-(4-(1-methyl-2-(pyrrolidin-1-ylmethyl)-1H-imidazol-5-yl)phenoxy)benzyl)-5-(methoxymethyl)-2,7,13,14-tetramethyl-1,4,7,11,14-pentaazacyclooctadecane-3,6,10,15,18-pentaone hydrochloride
- cyclisation yield (hydrochloride): 47%

Substance: Ethyl 4-((3-((4S,7S,10S,14R,16aS,20aS)-14-benzyl-11-(4-chloro-2-(4-(2-((dimethylamino) methyl)-1-methyl-1H-imidazol-5-yl)phenoxy)benzyl)-4-(4-chlorobenzyl)-7-(methoxymethyl)-5,16-dimethyl-2,6,9,12,15-pentaoxodocosahydrobenzo[l][1,4,7,11,14]pentaazacyclooctadecin-10-yl)propyl)amino) butanoate
- step yield: 27%

Substance: (4S,7S,10S,16aS,20aS)-4-(4-chlorobenzyl)-11-(2-(difluoromethoxy)-6-(4-(2-((dimethylamino)methyl)-1-methyl-1H-imidazol-5-yl)phenoxy)benzyl)-7-(methoxymethyl)-5,10,16-trimethylhexadecahydro-benzo[l][1,4,7,11,14]pentaazacyclooctadecine-2,6,9,12,15(3H)-pentaone
- cyclisation yield: 22%

Substance: (4S,7S,10S,14R,16aS,20aS)-11-(4-chloro-2-(4-(2-((dimethylamino)methyl)-1-methyl-1H-imidazol-5-yl)phenoxy)benzyl)-4-(4-chlorobenzyl)-7-(methoxymethyl)-5,10,16-trimethyl-14-((6-methylpyridin-2-yl)methyl)hexadecahydrobenzo-[l][1,4,7,11,14]pentaazacyclooctadecine-2,6,9,12,15(3H)-pentaone
- cyclisation yield: 31.1%

Substance: (4S,7S,10S,14R,16aS,20aS)-14-benzyl-11-(4-chloro-2-(4-(2-((dimethylamino)-methyl)-1-methyl-1H-imidazol-5-yl)phenoxy)benzyl)-4-(4-chlorobenzyl)-7-(methoxymethyl)-5,16-dimethyl-10-(2-morpholinoethyl)hexadecahydrobenzo-[l][1,4,7,11,14]pentaazacycloocta-decine-2,6,9,12,15(3H)-pentaone
- step yield: 11%

Substance: (2S,5S,8S,13S,16R)-13-(4-aminobutyl)-16-benzyl-1-(4-chloro-2-(4-(1-methyl-2-(pyrrolidin-1-ylmethyl)-1H-imidazol-5-yl)phenoxy)benzyl)-8-(4-chlorobenzyl)-5-(methoxymethyl)-2,7,14-trimethyl-1,4,7,11,14-pentaazacyclooctadecane-3,6,10,15,18-pentaone trifluoroacetate
- step yield (trifluoroacetate): 28.1% yield

Substance: 5-(4-(2-(((2S,5S,8S,13S,16R)-16-benzyl-8-(4-chlorobenzyl)-5-(methoxymethyl)-2,7,13,14-tetramethyl-3,6,10,15,18-pentaoxo-1,4,7,11,14-pentaazacyclooctadecan-1-yl)methyl)-5-chlorophenoxy)phenyl)-N-(piperidin-4-yl)picolinamide trifluoroacetate
- step yield (trifluoroacetate): 43.2% yield

Substance: ((4S,7S,10S,14R,16aS,20aS)-14-benzyl-11-(4-chloro-2-(4-(2-((dimethylamino)methyl)-1-methyl-1H-imidazol-5-yl)phenoxy)benzyl)-4-(4-chlorobenzyl)-5,10,16-trimethyl-2,6,9,12,15-pentaoxodocosahydrobenzo[l][1,4,7,11,14]pentaazacyclooctadecin-7-yl)methyl pivalate
- step yield: 56.7%

Substance: (4S,7S,10S,14R,16aS,20aS)-14-benzyl-11-(4-chloro-2-(4-(2-((dimethylamino)methyl)-1-methyl-1H-imidazol-5-yl)phenoxy)benzyl)-4-(4-chlorobenzyl)-7-(methoxy-methyl)-5,16-dimethyl-10-(3-(3,3,4,4-tetrafluoropyrrolidin-1-yl)propyl)hexadecahydro-benzo[l][1,4,7,11,14]pentaazacyclooctadecine-2,6,9,12,15(3H)-pentaone
- cyclisation yield: 17%

Substance: (2S,5S,8S,13S,16R)-16-benzyl-1-(4-chloro-2-(4-(4-((diethylamino)methyl)-1H-1,2,3-triazol-1-yl)phenoxy)benzyl)-8-(4-chlorobenzyl)-5-(methoxymethyl)-2,7,13,14-tetramethyl-1,4,7,11,14-pentaazacyclooctadecane-3,6,10,15,18-pentaone
- step yield: 19%
